From article PMC12040169 (PLOS Biology, 2025) come the findings set out here.

This is one part of the list.

For the assay, the system named is T1, CTL2-GFP (C. trachomatis L2/434/Bu, GFP-expressing).
T1 construct: L2/434/Bu, GFP-expressing
The arrangement: species or system HeLa; Intracellular C. trachomatis growth in HeLa cells, bulk GFP fluorescence relative to DMSO. The settings on record: bulk GFP, single well; 28.5 h, 10 µM; inhibitor.
In the case of `Nc1ncc(-c2cccc3cccnc23)nc1N1CCC[C@@H]1CO` [CBK063470], the “% of control remaining” value was 106.824%.
Under `COc1cc(OC)nc(Oc2ccc(C(=O)O)cc2)n1` [CBK092222] stands 148.551%; under `CC(=O)c1ccc(NC(=O)COn2nnc3ccc([N+](=O)[O-])cc32)cc1` [CBK266980], 119.99%; under `Cc1ccc2nc(SCc3cccc([N+](=O)[O-])c3)nc(C)c2c1` [CBK264370], 105.587%.
As for `COc1cccc2c1cc(C(=O)NC1CCCN(C)C1)n2C` (stereo not drawn) [CBK283266], the “% of control remaining” value was found to be 110.039%.
The same measure for `O=C1NC[C@]2(CC[C@@H](C(=O)NC3CC3)CC2)Oc2ccc(Cl)cc21` [CBK284889]: 139.038%; for `COc1ccc(-c2cc(C(=O)OCC(=O)c3cccc4ccccc34)c3ccccc3n2)cc1` [CBK265513]: 119.484%; for `Cc1ccc2c(c1)c(C)c(C(=O)NCCn1ccc(C)n1)n2C` [CBK282609]: 87.0769%.
Under `CCc1ccc(Oc2c(CC(=O)O)oc3cc(O)c(CC)cc3c2=O)cc1` [CBK266108] stands 87.9401%; under `Cc1cc(C)n(CC(=O)NCCCc2ccc(Cl)cc2)c(=O)n1` [CBK281561], 123.847%.
The same measure for `O=C(C1CCCC1)N1C2CCC1CC(O)(c1cccnc1F)C2` (stereo not drawn) [CBK284421]: 101.422%; for `O=C(CSc1nnc(-c2ccccc2Br)o1)c1ccc(F)cc1` [CBK068688]: 139.321%.
`CCN1CCN(c2cc(N3CCN(C(=O)COc4ccccc4F)C(C)C3)c([N+](=O)[O-])cc2F)CC1` (stereo not drawn) [CBK267513]: the “% of control remaining” value is recorded as 110.338%.
Turning to `C=CCOc1nc2c(=O)[nH]c(NC(=O)C(C)C)nc2n1[C@H]1C[C@@H](O)[C@@H](CO)O1` [CBK201216], the “% of control remaining” value was determined as 163.171%.
Under `CCNS(=O)(=O)c1ccc2c(c1)N(Cc1ccc(CO)o1)CC2` [CBK306158] stands 137.785%; under `CSc1nsc(SCC(=O)c2ccc(Oc3ccccc3)cc2)n1` [CBK269104], 148.077%.
`CC1(C)CC(N(Cc2ccccc2)Cc2c[nH]cn2)CC(C)(C)N1` [CBK283196]: the “% of control remaining” value amounted to 113.385%.
Take `CC(=O)NC1CCN(CC2(c3cccc(F)c3)CCCC2)CC1` [CBK282590]: the “% of control remaining” value came out at 116.621%.
The same measure for `CN1C[C@]2(CC[C@@H](C(=O)NC3CC3)CC2)Oc2ccccc2C1=O` [CBK282610]: 101.716%; for `OCCN1CCN(c2nnc(-c3ccccc3)cc2-c2ccccc2)CC1` [CBK270045]: 135.359%; for `Cc1cc(Br)ccc1-n1sc2ccccc2c1=O` [CBK116239]: 93.279%.
As to `Nc1ncc(-c2cccc(O)c2)nc1-c1ccc(C=O)cc1` [CBK064088], the “% of control remaining” value stood at 81.962%.
Regarding `Cc1noc(C)c1NC(=O)c1cncn1C` [CBK200396], the “% of control remaining” value turned out to be 63.4177%.
`COc1ccc(C(=O)C2=C(O)C(=O)N(CCCN(C)C)C2c2ccncc2)cc1Cl` (stereo not drawn) [CBK266529]: the “% of control remaining” value was found to be 135.81%.
Take `COc1ccccc1-c1cc([C@H]2CN3CC[C@H]2C[C@@H]3CNC(=O)c2ccco2)nc(C)n1` [CBK289119]: the “% of control remaining” value came out at 132.908%.
Under `OC(CN1CCNCC1)Cn1c2ccc(Cl)cc2c2cc(Cl)ccc21` (stereo not drawn) [CBK094277G] stands 46.7194%.
The same measure for `COc1cc(NC(=O)NCC2CCN(CCOc3c(OC)cccc3OC)CC2)cc(OC)c1` [CBK051514]: 100%; for `CCC(=O)Nc1nnc(-c2ccc3c(c2)OCCO3)o1` [CBK287404]: 165.361%.
As to `CS(=O)(=O)c1ccc(-c2ccc(C(=O)NCc3ccccc3)cn2)cc1` [CBK158885], the “% of control remaining” value is given as 111.032%.
The same measure for `COCC(=O)N1CCc2sccc2C1c1ccc(NC(=O)c2ccc(OC)cc2)cc1` (stereo not drawn) [CBK286467]: 130.829%; for `Cc1cccc(C(=O)Nc2ncn(CC(=O)N3CCCCCC3)n2)n1` [CBK304954]: 120.259%; for `CC1(C(F)(F)F)OC(NC2C3CC4CC(C3)CC2C4)=NC1=O` (stereo not drawn) [CBK115312]: 83.6817%.
Under `CCN1C(=O)CC(N2CCN(c3cc(-c4ccc(OC)cc4)nc(C)n3)CC2)C1=O` (stereo not drawn) [CBK269744] stands 102.186%; under `Cn1ncc2c(SCc3cc4c(cc3Br)OCCO4)ncnc21` [CBK297732], 120.199%.
Take `O=C(O)/C=C/c1cn(-c2ccccc2)nc1-c1cccs1` [CBK263119]: the “% of control remaining” value came to 100%.
Turning to `Cc1cc(-c2cc(=O)n(CCc3ccccc3)nc2-c2ccco2)on1` [CBK282879], the “% of control remaining” value worked out at 107.616%.
Under `CN(C(=O)c1cccn1C)C1CCN(c2ncnc3ccccc23)CC1` [CBK306110] stands 103.862%; under `COc1ccc(CN2CCCN(c3cc(OCC4COc5ccccc5O4)ncn3)CC2)cc1` (stereo not drawn) [CBK083255T], 117.691%; under `Cc1cc(N2C(=O)CC(N3CCC(C(=O)N4CCOCC4)CC3)C2=O)no1` (stereo not drawn) [CBK269035], 108.087%.
Under `Fc1ccccc1CSc1nnc(-c2cnccn2)n1Cc1ccco1` [CBK267556] stands 140.029%; under `Cc1cccc(-c2ncc(C(=O)NCCN3CCOCC3)cc2-c2ccc(O)cc2)c1` [CBK037435], 154.474%; under `CS(=O)(=O)N1CCC(C(=O)NC(c2ccccc2)c2ccccc2)CC1` [CBK269801], 136.846%.
Under `COc1ccc([C@@]23CC[C@H](NC(=O)c4[nH]cnc4C)C[C@@H]2N(C)CC3)cc1OC` [CBK038097] stands 110.629%; under `Nc1ccc(-c2cn3ccnc3c(NCC3CC3)n2)cc1` [CBK066677], 218.324%.
`NNC(=O)COc1ccc(Cl)cc1Cl` [CBK261671]: the “% of control remaining” value is reported as 126.475%.
`Cc1ccc(S(=O)(=O)N/N=C/C=C/c2ccc(N(C)C)cc2)cc1` [CBK265078]: the “% of control remaining” value came out at 116.021%.
Under `Cc1ccc(-c2nc3ccccc3c(=O)o2)cc1C` [CBK288137] stands 114.822%; under `Cn1c(SCC(=O)Nc2ccc(N3CCOCC3)c(Cl)c2)nnc1-c1ccc(N)cc1` [CBK265777], 134.51%; under `COc1ccc(Sc2cc3n(c(=O)n2)CCc2cc(OC)c(OC)cc2-3)cc1` [CBK291186], 128.916%.
The same measure for `COc1ccc2[nH]c3c(c2c1)CCN(C(=O)CNCC(=O)O)C31CCN(CCOc2ccccc2)C1` (stereo not drawn) [CBK082782T]: 117.679%.
`O=C(O)C1CCN(C(=O)CCC2CCCCC2)CC1` [CBK286804]: the “% of control remaining” value was determined as 148.306%.
As for `OCCOc1cccc(OCCOc2nccnc2N2CCNCC2)c1` [CBK014339G], the “% of control remaining” value is reported as 125.638%.
Under `O=C(NC1CC1)c1cnc2ccc(F)cc2c1O` [CBK307629] stands 118.219%; under `COc1ccc(CCN2C(=O)CC(N3CCN(c4ccccc4)CC3)C2=O)cc1OC` (stereo not drawn) [CBK262354], 112.011%; under `COc1cccc2sc(Nc3nnc(-c4cccs4)o3)nc12` [CBK287473], 85.6397%.
The same measure for `COc1ccccc1NC(=O)C1=C(C)Nc2nnnn2C1c1ccc(OC)c([N+](=O)[O-])c1` (stereo not drawn) [CBK293954]: 155.574%.
Under `Cc1cc(C)c2c(N)c(C(=O)Nc3ccc(C(=O)O)cc3)sc2n1` [CBK300515] stands 151.709%; under `O=C(NNc1ccc([N+](=O)[O-])cc1)c1cccs1` [CBK261709], 104.914%; under `CCCCN(CC(N)=O)C(=O)c1sc(COc2ccc(Cl)cc2)nc1C` [CBK304539], 90.1798%.
Consider `COc1ccc(NCC(=O)N/N=C(\C)c2ccccc2O)cc1` [CBK263887], for which the “% of control remaining” value is reported as 113.521%.
The same measure for `COCC(=O)N1CC[C@@H]2[C@H]1C(=O)N(c1ccc(OC)cc1)C(=O)N2Cc1ccccc1` [CBK289280]: 126.1%; for `CC1(C)C(C(=O)O)C1C(=O)NCCc1ccc(O)cc1` (stereo not drawn) [CBK286832]: 135.832%.
With `CCc1nc2ccc(C(=O)NCCN3CCOCC3)cn2c1N(C=O)Cc1ccc(OC)cc1` [CBK146625], the “% of control remaining” value is given as 100%.
Regarding `NC(=O)c1ccc(NC(=O)c2cncc(-c3ccc(C(=O)N4CCOCC4)cc3)c2)cc1` [CBK160214], the “% of control remaining” value was found to be 99.9842%.
Under `CCOC(=O)C1(C2CCCCC2)CCN(C(=O)CC2CCCCC2)CC1` [CBK136919] stands 111.393%.
Consider `Cc1sc2ncn(CC(=O)NCCc3c[nH]cn3)c(=O)c2c1C` [CBK304685], for which the “% of control remaining” value came out at 86.1304%.
In the case of `COc1ccc(S(=O)(=O)N2CCN(C(=O)c3ccc(C(C)(C)C)cc3)CC2)cc1` [CBK157251], the “% of control remaining” value is on record as 73.6471%.
As for `O=C(CC(CN1CCN(Cc2cccnc2)CC1)C(=O)O)Nc1ccc(Cl)cc1` (stereo not drawn) [CBK286853], the “% of control remaining” value was 134.453%.
Under `O=C(O)C1C2CCC(O2)C1C(=O)N1CCN(Cc2ccc(Cl)cc2)CC1` (stereo not drawn) [CBK286943] stands 101.331%; under `CCOc1ccccc1NC(=O)CCCC(=O)O` [CBK275986], 98.7218%; under `O=C(CCC(=O)Nc1ccc(F)cc1)N/N=C/c1ccc(O)cc1O` [CBK261766], 107.588%.
Under `Cc1cc(S(=O)(=O)Nc2ccnn2C(C)C)ccc1F` [CBK283069] stands 71.0791%.
The same measure for `CSCCN1CCN(c2nccnc2OC2CCCCC2)CC1` [CBK082843T]: 135.341%.
For `O=C(c1nc2ccccc2s1)C1CCNCC1` [CBK285397], the “% of control remaining” value turned out to be 106.225%.
Regarding `O=C(O)c1ccc(N2C(=O)CC(N3CCC(Cc4ccccc4)CC3)C2=O)cc1` (stereo not drawn) [CBK273484], the “% of control remaining” value came to 105.038%.
With `Cc1ccc(CCNc2c([N+](=O)[O-])nn(-c3ccc4c(c3)OCCO4)[n+]2[O-])cc1` [CBK268225], the “% of control remaining” value worked out at 62.9191%.
The same measure for `NC(=O)c1cccc(-c2nc(-c3cccs3)cnc2N)c1` [CBK064117]: 202.956%; for `O=C1CSC(=O)N1CNc1ccc(Br)cc1` [CBK261819]: 109.413%.
